Measurements reported in PubChem BioAssay AID1508600 (Functional Genomics Laboratory (NCATS/FGL), 2020).
Out of some 53,000 sequences screened, about 3,700 (7%) were called active.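 How the source made its calls: active means gene knockdowns whose robust z-score for IL-1 alpha signal is at least 2 or at most -2, so actives lie on both sides; inactive means the rest.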 This is one part of the list.

Assay: Components of the Cytosolic LPS Sensing Pathway: Gene Identification via Genome-wide siRNA Screen;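 further: robust z of the log signal after scaling to non-targeting control siRNA wells of the plate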
Conditions: RAW264.7 macrophages, IL-1a HTRF, actives lie on both sides, screened at 100 nM (by protocol), cells primed 5 h with Pam3CSK4 first
Summary of the method: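 Supernatant IL-1a by HTRF from RAW264.7 cells primed with Pam3CSK4 (5 hours) and transfected with LipidA (24 hour) after 48h siRNA knockdown at 100 nM; cell viability checked with CellTiter-Glo.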

| Sequence | z-score |
| --- | --- |
| GGACCAGUUAAAGUGGCAGTT against Oas1e | inactive: -0.00736 |
| GGGACAGAUGGUCGAUGAATT against E130308A19Rik | inactive: 0.176 |
| GGCAGCUGAAGAUUAUGGATT against Tagln | inactive: 0.837 |
| UAUCCUAUGGCUUUCCUGGTT against Olfr485 | inactive: -1.48 |
| GGAGUUAUUUCCUAGAACATT against Rsad2 | inactive: 0.129 |
| GGAGAUAGAGACCCUAGUGTT against Tas2r124 | inactive: -0.443 |
| GGCAGUUCGUCAGCUUCAUTT against Bhmt | inactive: -1.69 |
| GCACCUUUGCAUAUCUAAATT against Olfr115 | inactive: -0.121 |
| GACUUCAGGCACACAUUGCTT against Cdc42ep5 | inactive: 0.989 |
| GGAGGUUGUAAUAGCCUUATT against Rassf8 | inactive: -0.62 |
| GCGUGUUCAACACCAACUUTT against Rdh8 | inactive: 0.635 |
| GGAAGAGCAAAUAUGAGAATT against Syp | inactive: -1.11 |
| GCUUCGAGUUACAAUGUCATT against Fbxw15 | inactive: -0.912 |
| GGCUCUCACACUCAAGUAUTT against Srpr | inactive: 0.458 |
| GGUUUUGCUCUCUAUUUGUTT against Ube2e3 | inactive: -0.0571 |
| UCUCCAUAUCCUAUGGAAGTT against Olfr813 | inactive: 0.638 |
| GGGAUCAGGCCAUUUCCAUTT against Vav2 | active: 2.26 |
| GGGAGUUUCAUUUUGAAAATT against Nipa2 | inactive: -0.987 |
| CCGUCGUGGAGCCAUUAAATT against Prkcd | inactive: 0.832 |
| GGGUUCAUUUCUCACCUCCTT against Bcl7b | inactive: -0.298 |
| CGACGUAGAAACAGUGCAGTT against Ankrd54 | inactive: 0.527 |
| GGAAAUGACACUUAUUGAATT against Ndst4 | inactive: -0.702 |
| GCUGAUAAGGAGGUACCAUTT against Igf2r | inactive: 0.916 |
| GGAGCCCAGGAAGAUGACATT against Cyp2c54 | active: -3.15 |
| GGGACUUUCAUAAUGCCAGTT against Snip1 | inactive: -1.57 |
| GGUCUUUAGCAGAGAAAAUTT against Zfp420 | inactive: -0.201 |
| GGCAUUAGCUACCUGGACATT against 1700013G24Rik | active: 3.44 |

Shown in CSV form: part of the list above.
Sequence,z-score
GGACCAGUUAAAGUGGCAGTT against Oas1e,inactive: -0.00736
UAUCCUAUGGCUUUCCUGGTT against Olfr485,inactive: -1.48
GGCAGUUCGUCAGCUUCAUTT against Bhmt,inactive: -1.69
GGAGGUUGUAAUAGCCUUATT against Rassf8,inactive: -0.62
GGAAGAGCAAAUAUGAGAATT against Syp,inactive: -1.11
GGUUUUGCUCUCUAUUUGUTT against Ube2e3,inactive: -0.0571
UCUCCAUAUCCUAUGGAAGTT against Olfr813,inactive: 0.638
GGGAUCAGGCCAUUUCCAUTT against Vav2,active: 2.26
GGGAGUUUCAUUUUGAAAATT against Nipa2,inactive: -0.987
CCGUCGUGGAGCCAUUAAATT against Prkcd,inactive: 0.832
GGAGCCCAGGAAGAUGACATT against Cyp2c54,active: -3.15
GGUCUUUAGCAGAGAAAAUTT against Zfp420,inactive: -0.201

Following part

| Sequence | z-score |
| --- | --- |
| GGUAUUGGAAAGUAGAAACTT against Igflr1 | inactive: 0.515 |
| GCGAAUCGCACAGGAUCUUTT against Hps4 | inactive: -0.707 |
| GGAUGAUGAAAACAAAGAATT against Skp1 | inactive: -0.239 |
| GGAGAAAACCUAGAAAUUUTT against Galnt1 | inactive: 0.238 |
| GGAAUUCUGGGAACAAAAGTT against Riox2 | inactive: -1.71 |
| GGACACAACAAGAAAUUCUTT against Suclg1 | inactive: 0.621 |
| GGCUAUCCUCUUUUACCAUTT against Dele1 | inactive: -0.374 |
| GAGCAUCCGCUACUUGGUATT against Nmnat1 | inactive: 0.0484 |
| GGAGGAUGGUGCCAACAUUTT against Psmc3 | active: -2.02 |
| GGUAGUCAUACAGAUAUGUTT against Hey2 | inactive: 0.973 |
| GGCACUUGGAGGUAGUUUCTT against Cip2a | inactive: 0.811 |
| GGAACAUGUAGAAGGUCCATT against Slc9a3r2 | inactive: 1.97 |
| GGCUAUGGAGAGAGUAUGCTT against Crppa | inactive: 0.413 |
| GGAGGAAAGAAAAGAUCCATT against Tie1 | inactive: -0.102 |
| GGCUCCGAGAAAUGCAAUCTT against Mmp13 | inactive: -0.832 |
| GGAAGAAGUCUGAUACAUCTT against Samd5 | inactive: 0.572 |
| GGAAUAUUAUGGGUAUCGATT against Cacna1s | inactive: 0.952 |
| GGUUGAUAGUUGUGAAAAGTT against Clcc1 | inactive: 0.327 |
| GGAUGCUAUAAAGAAUGCCTT against Prpf39 | inactive: -1.19 |
| CCAUUAUGAUUUAUGCUCCTT against Kcnmb4 | inactive: -0.0937 |
| GGAGUCACUCACAUUGUGGTT against Poll | inactive: -0.198 |
| GGUAACCUAGUGUAAGUUUTT against Atg2b | inactive: -0.0782 |
| GGGCAUUUUGAUGCUUACGTT against 1700034I23Rik | inactive: -1.56 |
| GGACAUUCCUGUUGAUAAUTT against Kcnj8 | inactive: -0.171 |
| GGAAGUUGACUUGUUCUCUTT against Ccndbp1 | inactive: 0.0255 |
| GGCAUUUGACACAACUGUCTT against AI182371 | inactive: -1.64 |
